PubChem BioAssay AID1671195 – Yale University | 2021
Shown is one part, drawn at random, of about 22,000 deposited reagents. About 1,510 of them (6.9%) count as active. 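Active includes knockdowns raising or lowering LDL uptake; positive z-scores mean more uptake, negative mean less.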 Unmarked entries are inactive. Reagents against one gene are numbered here. No sequences are given here.

Screen: 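Knockdowns that increase or decrease uptake of fluorescent LDL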 (primary screen)
System: human Huh7 hepatoma cells
Knock-down reagent: siRNA pool against human genes, 18 nM
Duration: about 2 to 2.5 days of knockdown, then 8 h LDL uptake
Conditions: DiI-labelled LDL at 30 µg/ml for 8 h, in lipoprotein-deficient serum medium
Measurement: 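Per-cell DiI-LDL intensity by automated imaging; well means scaled to the plate median and given as a robust z-score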
Scale: robust z-score: higher = more LDL uptake after knockdown
Call rule: 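a gene counts as active if at least two replicate z-scores exceed ±2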

{"target": "ARSH", "reagent": 1, "robust z-score, replicate 1": 0.0762, "robust z-score, replicate 2": -0.121, "robust z-score, replicate 3": 0.141}
{"target": "OCIAD1", "reagent": 1, "robust z-score, replicate 1": -1.04, "robust z-score, replicate 2": -1.19, "robust z-score, replicate 3": -0.777}
{"target": "LOC402414 (retired record)", "reagent": 1, "robust z-score, replicate 1": -0.658, "robust z-score, replicate 2": -0.447, "robust z-score, replicate 3": -0.595}
{"target": "BCL2", "reagent": 1, "robust z-score, replicate 1": 0.168, "robust z-score, replicate 2": -0.229, "robust z-score, replicate 3": -0.885}
{"target": "SLC4A10", "reagent": 1, "robust z-score, replicate 1": 0.175, "robust z-score, replicate 2": 0.528, "robust z-score, replicate 3": 0.265}
{"target": "LOC284269", "reagent": 1, "robust z-score, replicate 1": 1.36, "robust z-score, replicate 2": 1.51, "robust z-score, replicate 3": 2.15}
{"target": "STMN2", "reagent": 1, "robust z-score, replicate 1": -0.926, "robust z-score, replicate 2": -1.39, "robust z-score, replicate 3": -1.85}
{"target": "CBLN1", "reagent": 1, "robust z-score, replicate 1": -1.33, "robust z-score, replicate 2": -1.1, "robust z-score, replicate 3": -1.43}

Continued, starting with the last 3 of the part before.
{"target": "LOC284269", "reagent": 1, "robust z-score, replicate 1": 1.36, "robust z-score, replicate 2": 1.51, "robust z-score, replicate 3": 2.15}
{"target": "STMN2", "reagent": 1, "robust z-score, replicate 1": -0.926, "robust z-score, replicate 2": -1.39, "robust z-score, replicate 3": -1.85}
{"target": "CBLN1", "reagent": 1, "robust z-score, replicate 1": -1.33, "robust z-score, replicate 2": -1.1, "robust z-score, replicate 3": -1.43}
{"target": "CIROZ", "reagent": 1, "robust z-score, replicate 1": 0.157, "robust z-score, replicate 2": -0.162, "robust z-score, replicate 3": -0.368}
{"target": "TDRKH", "reagent": 1, "robust z-score, replicate 1": -2.42, "robust z-score, replicate 2": 0.385, "robust z-score, replicate 3": 1.08}
{"target": "CNNM4", "reagent": 1, "robust z-score, replicate 1": -0.512, "robust z-score, replicate 2": -0.174, "robust z-score, replicate 3": 0.555}
{"target": "LOC128939 (retired record)", "reagent": 1, "robust z-score, replicate 1": 0.917, "robust z-score, replicate 2": 0.57, "robust z-score, replicate 3": -0.187}
{"target": "CRACR2A", "reagent": 1, "robust z-score, replicate 1": "2.35 (active)", "robust z-score, replicate 2": 1.72, "robust z-score, replicate 3": 2.04}
{"target": "CRACR2A", "reagent": 2, "robust z-score, replicate 1": 0.0136, "robust z-score, replicate 2": 0.51, "robust z-score, replicate 3": -0.055}
{"target": "ALKBH4", "reagent": 1, "robust z-score, replicate 1": -0.622, "robust z-score, replicate 2": -0.485, "robust z-score, replicate 3": -0.3}
{"target": "GFRA3", "reagent": 1, "robust z-score, replicate 1": 0.226, "robust z-score, replicate 2": 1.01, "robust z-score, replicate 3": 1.14}
{"target": "CEP120", "reagent": 1, "robust z-score, replicate 1": -0.802, "robust z-score, replicate 2": -1.88, "robust z-score, replicate 3": 0.125}
{"target": "NPFFR2", "reagent": 1, "robust z-score, replicate 1": 1.22, "robust z-score, replicate 2": 0.408, "robust z-score, replicate 3": 1.82}
{"target": "BTBD3", "reagent": 1, "robust z-score, replicate 1": 0.0644, "robust z-score, replicate 2": -0.317, "robust z-score, replicate 3": 0.239}
{"target": "ARRB2", "reagent": 1, "robust z-score, replicate 1": -0.095, "robust z-score, replicate 2": 0.285, "robust z-score, replicate 3": -0.569}
{"target": "MACF1", "reagent": 1, "robust z-score, replicate 1": 0.589, "robust z-score, replicate 2": 0.726, "robust z-score, replicate 3": 0.0978}
{"target": "OR51G1", "reagent": 1, "robust z-score, replicate 1": "2.43 (active)", "robust z-score, replicate 2": 1.91, "robust z-score, replicate 3": 2.05}
{"target": "HOXA1", "reagent": 1, "robust z-score, replicate 1": 0.894, "robust z-score, replicate 2": 1.02, "robust z-score, replicate 3": 0.551}
{"target": "GJA9", "reagent": 1, "robust z-score, replicate 1": -0.117, "robust z-score, replicate 2": -0.229, "robust z-score, replicate 3": -0.197}
